Laboratory results from the supplement of paper PMC10849652.
This is one part of the list.

By UniProt entry, the sequences of proteins in these tests, tags left out. Where a name states a change or a piece, a line headed by the entry shows the natural chain unless it says otherwise.
UniProt P14174: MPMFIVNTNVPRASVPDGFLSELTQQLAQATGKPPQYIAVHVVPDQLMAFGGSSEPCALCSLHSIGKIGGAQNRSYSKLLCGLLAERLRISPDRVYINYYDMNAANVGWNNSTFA
UniProt Q96T76: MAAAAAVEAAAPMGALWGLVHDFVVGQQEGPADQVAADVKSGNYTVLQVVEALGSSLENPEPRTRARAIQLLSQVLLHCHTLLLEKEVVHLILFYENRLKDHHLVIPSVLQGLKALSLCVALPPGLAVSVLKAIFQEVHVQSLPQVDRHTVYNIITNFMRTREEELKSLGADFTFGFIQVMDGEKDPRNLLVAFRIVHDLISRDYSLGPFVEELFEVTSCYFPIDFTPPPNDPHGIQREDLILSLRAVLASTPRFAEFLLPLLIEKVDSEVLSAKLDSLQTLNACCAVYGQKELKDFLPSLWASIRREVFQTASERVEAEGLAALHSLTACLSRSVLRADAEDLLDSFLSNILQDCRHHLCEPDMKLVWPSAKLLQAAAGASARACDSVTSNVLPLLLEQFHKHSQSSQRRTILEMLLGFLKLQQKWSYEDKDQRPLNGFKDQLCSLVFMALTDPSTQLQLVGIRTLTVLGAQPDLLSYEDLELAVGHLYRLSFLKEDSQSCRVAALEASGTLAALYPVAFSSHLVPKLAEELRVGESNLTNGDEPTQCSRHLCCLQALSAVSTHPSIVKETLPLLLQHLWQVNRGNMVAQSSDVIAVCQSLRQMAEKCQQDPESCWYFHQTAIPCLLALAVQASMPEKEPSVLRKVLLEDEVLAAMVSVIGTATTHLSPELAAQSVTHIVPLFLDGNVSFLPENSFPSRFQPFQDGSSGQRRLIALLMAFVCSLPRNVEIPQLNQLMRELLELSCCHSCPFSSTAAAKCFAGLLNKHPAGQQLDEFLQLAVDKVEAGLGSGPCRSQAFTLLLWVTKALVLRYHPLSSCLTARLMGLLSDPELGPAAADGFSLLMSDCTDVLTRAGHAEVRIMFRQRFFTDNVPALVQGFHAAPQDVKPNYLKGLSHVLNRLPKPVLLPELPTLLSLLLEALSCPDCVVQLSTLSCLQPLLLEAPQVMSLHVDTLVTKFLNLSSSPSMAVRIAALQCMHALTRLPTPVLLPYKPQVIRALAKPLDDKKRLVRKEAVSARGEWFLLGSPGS
UniProt O96033: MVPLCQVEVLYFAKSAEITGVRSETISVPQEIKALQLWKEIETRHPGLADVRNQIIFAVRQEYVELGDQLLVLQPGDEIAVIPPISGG
UniProt P51948: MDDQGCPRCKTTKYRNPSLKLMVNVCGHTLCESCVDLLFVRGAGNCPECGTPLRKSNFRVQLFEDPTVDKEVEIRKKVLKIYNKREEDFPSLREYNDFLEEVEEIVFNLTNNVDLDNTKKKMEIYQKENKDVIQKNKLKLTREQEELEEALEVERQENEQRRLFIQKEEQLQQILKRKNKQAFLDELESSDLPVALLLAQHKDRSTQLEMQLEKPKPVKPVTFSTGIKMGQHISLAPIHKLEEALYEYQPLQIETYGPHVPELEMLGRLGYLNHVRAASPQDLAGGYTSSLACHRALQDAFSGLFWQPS
UniProt Q9H081: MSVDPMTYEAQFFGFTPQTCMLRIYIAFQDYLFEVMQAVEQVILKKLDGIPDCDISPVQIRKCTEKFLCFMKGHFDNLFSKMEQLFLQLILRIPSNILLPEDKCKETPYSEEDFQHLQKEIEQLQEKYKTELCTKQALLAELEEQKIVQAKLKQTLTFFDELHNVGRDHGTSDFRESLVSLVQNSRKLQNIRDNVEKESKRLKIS
UniProt Q9H000: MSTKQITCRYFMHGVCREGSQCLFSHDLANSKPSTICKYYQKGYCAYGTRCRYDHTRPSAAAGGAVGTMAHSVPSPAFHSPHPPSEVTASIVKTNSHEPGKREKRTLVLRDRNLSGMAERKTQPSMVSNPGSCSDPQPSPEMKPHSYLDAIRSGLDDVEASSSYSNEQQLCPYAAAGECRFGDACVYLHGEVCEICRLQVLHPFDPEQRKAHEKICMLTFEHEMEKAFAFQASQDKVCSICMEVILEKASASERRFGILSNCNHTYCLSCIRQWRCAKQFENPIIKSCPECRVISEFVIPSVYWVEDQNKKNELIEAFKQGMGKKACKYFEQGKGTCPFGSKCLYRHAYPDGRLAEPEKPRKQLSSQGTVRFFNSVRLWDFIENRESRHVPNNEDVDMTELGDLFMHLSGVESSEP
UniProt Q8WV92, whole entry, looked up: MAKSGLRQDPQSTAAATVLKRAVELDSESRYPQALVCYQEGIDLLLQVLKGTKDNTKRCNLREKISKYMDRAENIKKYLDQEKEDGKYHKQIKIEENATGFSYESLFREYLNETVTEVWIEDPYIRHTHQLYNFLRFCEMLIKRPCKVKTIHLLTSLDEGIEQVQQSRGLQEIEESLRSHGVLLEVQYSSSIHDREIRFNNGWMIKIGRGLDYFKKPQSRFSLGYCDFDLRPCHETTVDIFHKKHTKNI
UniProt Q9BRT3: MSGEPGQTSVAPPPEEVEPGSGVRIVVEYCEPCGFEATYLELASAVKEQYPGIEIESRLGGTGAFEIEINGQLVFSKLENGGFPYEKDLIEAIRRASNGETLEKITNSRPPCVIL
UniProt Q13064: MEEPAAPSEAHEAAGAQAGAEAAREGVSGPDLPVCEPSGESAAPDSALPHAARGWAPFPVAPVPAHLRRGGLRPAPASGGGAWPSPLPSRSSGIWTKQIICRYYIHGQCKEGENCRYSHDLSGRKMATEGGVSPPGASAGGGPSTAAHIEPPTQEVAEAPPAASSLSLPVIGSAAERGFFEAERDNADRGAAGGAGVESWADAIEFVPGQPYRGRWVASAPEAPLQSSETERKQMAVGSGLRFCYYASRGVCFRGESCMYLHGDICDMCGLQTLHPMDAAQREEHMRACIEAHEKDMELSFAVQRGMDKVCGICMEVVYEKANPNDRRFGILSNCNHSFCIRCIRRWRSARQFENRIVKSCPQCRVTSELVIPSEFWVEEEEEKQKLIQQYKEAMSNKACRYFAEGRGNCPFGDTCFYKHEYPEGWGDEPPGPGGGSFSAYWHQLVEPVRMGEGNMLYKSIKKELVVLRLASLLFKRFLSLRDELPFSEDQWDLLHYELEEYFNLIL
UniProt Q9BVC4, whole entry, looked up: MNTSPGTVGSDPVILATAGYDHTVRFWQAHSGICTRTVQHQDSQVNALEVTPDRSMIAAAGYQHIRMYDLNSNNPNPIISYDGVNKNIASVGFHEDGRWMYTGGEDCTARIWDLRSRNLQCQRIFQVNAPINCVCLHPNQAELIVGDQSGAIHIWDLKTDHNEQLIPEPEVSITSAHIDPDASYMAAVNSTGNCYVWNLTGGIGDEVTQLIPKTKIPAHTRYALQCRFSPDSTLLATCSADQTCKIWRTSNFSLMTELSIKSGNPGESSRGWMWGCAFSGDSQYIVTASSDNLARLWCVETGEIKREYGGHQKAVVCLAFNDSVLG
UniProt Q9BWT6: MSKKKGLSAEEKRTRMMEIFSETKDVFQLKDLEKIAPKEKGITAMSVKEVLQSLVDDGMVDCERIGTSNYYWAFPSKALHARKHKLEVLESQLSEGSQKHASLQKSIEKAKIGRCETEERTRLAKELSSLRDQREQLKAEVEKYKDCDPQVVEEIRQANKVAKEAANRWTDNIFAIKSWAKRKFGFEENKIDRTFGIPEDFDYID
UniProt Q9Y605: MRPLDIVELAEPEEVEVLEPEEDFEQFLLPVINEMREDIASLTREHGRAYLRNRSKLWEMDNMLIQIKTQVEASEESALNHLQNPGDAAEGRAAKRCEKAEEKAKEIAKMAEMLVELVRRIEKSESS
UniProt Q5XKP0: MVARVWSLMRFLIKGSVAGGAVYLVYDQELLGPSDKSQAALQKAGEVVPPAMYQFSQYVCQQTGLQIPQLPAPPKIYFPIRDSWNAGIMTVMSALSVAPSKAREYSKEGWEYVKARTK
UniProt Q9Y5U8: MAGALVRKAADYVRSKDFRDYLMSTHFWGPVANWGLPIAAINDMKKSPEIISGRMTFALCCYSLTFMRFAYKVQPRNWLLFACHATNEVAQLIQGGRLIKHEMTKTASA
UniProt Q14149: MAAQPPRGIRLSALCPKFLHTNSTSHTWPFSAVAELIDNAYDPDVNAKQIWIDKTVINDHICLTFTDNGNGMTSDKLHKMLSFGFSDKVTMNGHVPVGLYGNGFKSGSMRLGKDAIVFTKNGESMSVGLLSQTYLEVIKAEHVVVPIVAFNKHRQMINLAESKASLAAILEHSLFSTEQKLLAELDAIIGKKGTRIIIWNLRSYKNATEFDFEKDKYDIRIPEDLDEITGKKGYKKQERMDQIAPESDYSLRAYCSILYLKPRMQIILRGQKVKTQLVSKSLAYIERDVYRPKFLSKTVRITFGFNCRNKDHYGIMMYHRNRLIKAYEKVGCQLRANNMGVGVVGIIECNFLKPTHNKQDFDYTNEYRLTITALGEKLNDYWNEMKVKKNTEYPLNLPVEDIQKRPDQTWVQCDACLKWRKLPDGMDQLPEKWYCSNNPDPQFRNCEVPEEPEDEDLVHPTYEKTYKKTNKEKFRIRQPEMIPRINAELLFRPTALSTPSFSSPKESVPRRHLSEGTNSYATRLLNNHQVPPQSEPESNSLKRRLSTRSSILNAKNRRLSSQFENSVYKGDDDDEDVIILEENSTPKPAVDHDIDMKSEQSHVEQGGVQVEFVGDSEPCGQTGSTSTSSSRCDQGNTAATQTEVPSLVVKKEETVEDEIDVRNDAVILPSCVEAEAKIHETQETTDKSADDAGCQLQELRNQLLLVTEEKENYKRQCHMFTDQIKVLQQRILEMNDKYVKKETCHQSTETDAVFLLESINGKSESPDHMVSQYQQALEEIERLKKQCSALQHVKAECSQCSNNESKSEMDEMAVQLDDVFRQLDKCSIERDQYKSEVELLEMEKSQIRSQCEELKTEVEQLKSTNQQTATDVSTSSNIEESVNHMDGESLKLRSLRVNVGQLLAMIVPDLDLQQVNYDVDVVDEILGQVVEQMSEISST
UniProt Q9NQG6: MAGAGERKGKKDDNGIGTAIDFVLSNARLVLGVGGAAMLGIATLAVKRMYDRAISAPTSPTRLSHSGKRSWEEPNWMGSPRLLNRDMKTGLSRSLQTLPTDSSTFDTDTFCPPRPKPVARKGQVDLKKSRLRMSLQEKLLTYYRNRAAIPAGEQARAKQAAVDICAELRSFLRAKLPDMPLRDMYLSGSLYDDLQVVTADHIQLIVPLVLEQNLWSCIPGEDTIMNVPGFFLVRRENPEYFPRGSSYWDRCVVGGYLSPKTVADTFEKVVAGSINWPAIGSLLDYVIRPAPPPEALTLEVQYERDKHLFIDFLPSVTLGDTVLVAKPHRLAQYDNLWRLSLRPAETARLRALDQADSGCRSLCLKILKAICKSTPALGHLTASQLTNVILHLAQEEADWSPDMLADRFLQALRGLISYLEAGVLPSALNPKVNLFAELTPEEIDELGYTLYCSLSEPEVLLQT
UniProt Q00013: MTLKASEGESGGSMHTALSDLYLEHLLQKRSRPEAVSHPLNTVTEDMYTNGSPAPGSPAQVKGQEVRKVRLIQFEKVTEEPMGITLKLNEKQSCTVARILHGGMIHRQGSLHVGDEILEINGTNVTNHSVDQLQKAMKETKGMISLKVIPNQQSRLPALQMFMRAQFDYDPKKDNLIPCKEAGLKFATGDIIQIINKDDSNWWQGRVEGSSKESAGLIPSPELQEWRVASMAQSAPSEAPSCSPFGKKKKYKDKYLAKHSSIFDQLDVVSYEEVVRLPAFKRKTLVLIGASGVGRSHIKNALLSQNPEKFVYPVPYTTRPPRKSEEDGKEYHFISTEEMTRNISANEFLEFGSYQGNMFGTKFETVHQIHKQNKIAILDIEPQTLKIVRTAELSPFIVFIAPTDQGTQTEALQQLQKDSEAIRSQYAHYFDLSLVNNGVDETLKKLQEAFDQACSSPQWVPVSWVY
UniProt P25325: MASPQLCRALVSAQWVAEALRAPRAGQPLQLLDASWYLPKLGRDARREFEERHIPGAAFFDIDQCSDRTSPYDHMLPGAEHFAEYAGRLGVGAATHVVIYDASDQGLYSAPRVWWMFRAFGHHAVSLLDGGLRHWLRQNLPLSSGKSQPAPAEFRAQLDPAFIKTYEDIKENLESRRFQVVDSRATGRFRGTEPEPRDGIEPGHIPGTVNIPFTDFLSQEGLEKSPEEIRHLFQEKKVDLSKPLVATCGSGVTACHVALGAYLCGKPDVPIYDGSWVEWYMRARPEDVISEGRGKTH
UniProt Q8IYU8: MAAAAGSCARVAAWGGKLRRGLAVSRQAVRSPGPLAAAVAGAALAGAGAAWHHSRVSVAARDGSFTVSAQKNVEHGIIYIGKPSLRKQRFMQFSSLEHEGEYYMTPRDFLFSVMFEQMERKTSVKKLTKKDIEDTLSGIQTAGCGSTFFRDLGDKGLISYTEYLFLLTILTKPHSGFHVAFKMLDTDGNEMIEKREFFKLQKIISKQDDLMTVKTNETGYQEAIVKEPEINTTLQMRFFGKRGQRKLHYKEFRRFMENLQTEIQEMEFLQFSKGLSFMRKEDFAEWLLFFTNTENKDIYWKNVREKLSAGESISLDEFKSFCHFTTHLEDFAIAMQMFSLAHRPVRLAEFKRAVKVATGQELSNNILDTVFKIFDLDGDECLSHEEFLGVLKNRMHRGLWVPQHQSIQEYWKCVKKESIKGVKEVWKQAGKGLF

These targets were tested with COC(=O)N[C@@H](C)CNc1nccc(-c2cn(C(C)C)nc2-c2cc(Cl)cc(NS(C)(=O)=O)c2F)n1 [encorafenib] (assay: log2 fold change, soluble protein after heating vs DMSO (PISA); higher = thermal stabilisation; K562 cells, 10 uM, 30 min; active = over 0.2 and 3.5 SD of the protein, either way, in both replicates (recomputed)).
Procedure, shortened: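 K562 cells at 2×10^6 cells/mL were given 10 μM compound for 30 min. Aliquots then went through 3 min of heating across 48°C-58°C, were pooled, and were extracted in PBS with 0.5% NP-40 at 4°C, and the supernatant after 21,000xg for 90 min was quantified by TMTpro 16plex LC-MS/MS with channel sums equalised. Thermal stability relative to control samples, from duplicates, is given as log2 fold change.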

log2 fold change, inactive:
MRPL47 (UniProt Q9HD33) 0.063, MRPL4 (UniProt Q9BYD3) 0.08, MIF (UniProt P14174) -0.058, MMS19 isoform 8 (UniProt Q96T76) 0.099, MOCS2 (UniProt O96033) 0.02, MNAT1 (UniProt P51948) -0.006, MRPL53 (UniProt Q96EL3) 0.081, MIS12 (UniProt Q9H081) 0.021, MRPL37 (UniProt Q9BZE1) 0.076, MKRN2 (UniProt Q9H000) 0.109, MITD1 (UniProt Q8WV92) -0.018, MIEN1 (UniProt Q9BRT3) -0.051, MKRN3 (UniProt Q13064) 0.033, MICU1 isoform 3 (UniProt Q9BPX6) 0.121, MLST8 (UniProt Q9BVC4) 0.101, MND1 (UniProt Q9BWT6) -0.15, MRFAP1 (UniProt Q9Y605) 0.141, MRPL34 (UniProt Q9BQ48) 0.055, MICOS13 (UniProt Q5XKP0) -0.028, MPC1 (UniProt Q9Y5U8) -0.222, MRPL46 (UniProt Q9H2W6) 0.045, MORC3 (UniProt Q14149) 0.076, MIEF1 (UniProt Q9NQG6) 0.023, MON1B (UniProt Q7L1V2) 0.037, MPP1 (UniProt Q00013) 0.067, MPST isoform 2 (UniProt P25325) 0.004, MICU2 (UniProt Q8IYU8) 0.073, MOV10 (UniProt Q9HCE1) 0.05, MIEF1 (UniProt L0R8F8) 0.008, MRPL50 (UniProt Q8N5N7) -0.01, MINK1 (UniProt Q8N4C8) 0.044, MRPL28 (UniProt Q13084) 0.089, MRPL42 (UniProt Q9Y6G3) 0.115, MPHOSPH10 (UniProt O00566) 0.214
